In patent US8877754B2, “Compounds, pharmaceutical compositions and uses thereof” (Boehringer Ingelheim International GmbH, priority 2010, dated 2014):
The match of structure and compound is tentative.

Protein sequences, listed by entry. Tags and fused reporters are not part of them. Residues count along the entry.
UniProt O00763, 129-2458 limits assumed: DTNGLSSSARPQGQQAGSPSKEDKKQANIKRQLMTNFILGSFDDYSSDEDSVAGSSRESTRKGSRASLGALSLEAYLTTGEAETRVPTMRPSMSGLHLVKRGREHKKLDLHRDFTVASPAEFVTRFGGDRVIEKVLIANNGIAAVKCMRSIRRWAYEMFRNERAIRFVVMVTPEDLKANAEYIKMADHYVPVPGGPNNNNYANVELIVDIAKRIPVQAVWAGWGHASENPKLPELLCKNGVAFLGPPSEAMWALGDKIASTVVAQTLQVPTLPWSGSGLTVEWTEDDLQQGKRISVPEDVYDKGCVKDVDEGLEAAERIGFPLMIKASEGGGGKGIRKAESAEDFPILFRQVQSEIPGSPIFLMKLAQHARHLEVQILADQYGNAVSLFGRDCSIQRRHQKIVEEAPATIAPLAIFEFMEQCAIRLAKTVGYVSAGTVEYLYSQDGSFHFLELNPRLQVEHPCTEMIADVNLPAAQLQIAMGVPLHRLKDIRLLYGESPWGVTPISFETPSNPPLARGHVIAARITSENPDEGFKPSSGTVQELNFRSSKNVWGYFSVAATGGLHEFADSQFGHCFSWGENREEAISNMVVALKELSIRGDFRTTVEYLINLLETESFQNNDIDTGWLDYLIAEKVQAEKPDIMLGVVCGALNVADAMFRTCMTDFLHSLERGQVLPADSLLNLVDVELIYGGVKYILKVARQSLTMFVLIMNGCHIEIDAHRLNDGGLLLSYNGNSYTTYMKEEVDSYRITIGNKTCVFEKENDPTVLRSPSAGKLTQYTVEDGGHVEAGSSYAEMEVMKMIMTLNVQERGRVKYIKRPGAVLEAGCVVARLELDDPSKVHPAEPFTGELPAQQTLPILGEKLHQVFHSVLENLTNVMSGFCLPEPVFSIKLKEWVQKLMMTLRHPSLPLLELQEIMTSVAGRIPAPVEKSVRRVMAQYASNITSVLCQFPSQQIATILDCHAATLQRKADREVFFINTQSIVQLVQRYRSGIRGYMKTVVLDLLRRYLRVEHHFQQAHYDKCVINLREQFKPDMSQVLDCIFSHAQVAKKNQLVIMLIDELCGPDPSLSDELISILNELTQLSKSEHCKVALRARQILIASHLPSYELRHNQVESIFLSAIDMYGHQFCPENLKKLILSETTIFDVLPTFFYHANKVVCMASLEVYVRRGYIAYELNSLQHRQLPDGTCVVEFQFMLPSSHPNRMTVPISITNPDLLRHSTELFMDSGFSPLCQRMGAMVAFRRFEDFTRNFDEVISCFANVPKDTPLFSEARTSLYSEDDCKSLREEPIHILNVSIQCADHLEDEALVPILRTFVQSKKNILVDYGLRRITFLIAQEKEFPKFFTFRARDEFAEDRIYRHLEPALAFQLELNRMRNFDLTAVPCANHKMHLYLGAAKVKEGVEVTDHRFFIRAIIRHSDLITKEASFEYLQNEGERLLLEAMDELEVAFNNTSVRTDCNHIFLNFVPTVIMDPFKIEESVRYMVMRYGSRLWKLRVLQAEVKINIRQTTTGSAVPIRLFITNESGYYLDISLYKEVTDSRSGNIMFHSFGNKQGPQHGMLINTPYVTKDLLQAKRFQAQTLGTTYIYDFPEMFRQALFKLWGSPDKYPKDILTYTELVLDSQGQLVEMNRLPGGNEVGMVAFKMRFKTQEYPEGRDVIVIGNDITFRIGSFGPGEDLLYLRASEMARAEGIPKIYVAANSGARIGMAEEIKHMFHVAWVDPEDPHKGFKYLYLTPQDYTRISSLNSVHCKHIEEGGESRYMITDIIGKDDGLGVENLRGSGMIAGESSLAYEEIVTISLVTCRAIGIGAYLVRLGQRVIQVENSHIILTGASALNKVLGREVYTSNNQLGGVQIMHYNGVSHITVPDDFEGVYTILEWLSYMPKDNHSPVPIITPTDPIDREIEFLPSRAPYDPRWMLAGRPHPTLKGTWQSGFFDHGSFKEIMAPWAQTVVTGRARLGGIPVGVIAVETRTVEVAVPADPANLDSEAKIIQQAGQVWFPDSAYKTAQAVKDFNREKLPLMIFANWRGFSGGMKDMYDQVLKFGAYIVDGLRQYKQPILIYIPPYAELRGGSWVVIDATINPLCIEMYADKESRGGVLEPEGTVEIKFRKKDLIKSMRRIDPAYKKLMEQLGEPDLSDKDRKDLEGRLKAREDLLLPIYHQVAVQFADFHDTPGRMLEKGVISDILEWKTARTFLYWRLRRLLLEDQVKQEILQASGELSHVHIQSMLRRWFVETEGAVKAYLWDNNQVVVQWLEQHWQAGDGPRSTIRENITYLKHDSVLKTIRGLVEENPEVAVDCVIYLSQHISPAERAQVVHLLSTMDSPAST

Target: human ACC2 (Homo sapiens, UniProt O00763)
Assay: ACC2 assay, spectrophotometric 384 well assay (NADH-linked, coupled lactate dehydrogenase/pyruvate kinase)
Conditions: hACC2 construct lacking the 128 N-terminal amino acids; 25° C., 340 nm, 15 minutes
Method: Spectrophotometric 384 Well Assay
Malonyl CoA formation by acetyl CoA carboxylases is stoichometrically linked to the consumption of ATP. ACC2 activity is measured in a NADH-linked kinetic method measuring ADP generated during the ACC reaction using a coupled lactate dehydrogenase/pyruvate kinase reaction.
For biological testing, a human ACC2 construct which lacks the 128 amino acids at the N-terminus for increased solubility (nt 385-6966 in Genbank entry AJ575592) is cloned. The protein is then expressed in insect cells using a baculoviral expression system. Protein purification is performed by anion exchange.
All compounds are dissolved in dimethyl sulfoxide (DMSO) to a concentration of 10 mM.
Assay reactions are then carried out in 384-well plates, with hACC2 in an appropriate dilution and at final assay concentrations (f.c.) of 100 mM Tris (pH 7.5), 10 mM trisodium citrate, 25 mM KHCO3, 10 mM MgCl2, 0.5 mg/mL BSA, 3.75 mM reduced L-glutathione, 15 U/mL lactate dehydrogenase, 0.5 mM phosphoenolpyruvate, 15 U/mL pyruvate kinase, compounds at different concentrations at final DMSO concentrations of 1%.
The enzymatic reaction is then started by addition of a mixture of NADH, acetyl Coenzyme A (both 200 μM f.c.) and ATP (500 uM f.c.). The decrease of the optical density (slope S) is then determined at 25° C. at a wavelength of 340 nm over 15 minutes in a spectrophotometric reader.
Each assay microtiter plate contains wells with vehicle instead of compound as controls for the non-inhibited enzyme (100% CTL; ‘HIGH’) and wells without acetyl-CoA as controls for non-specific NADH degradation (0% CTL; ‘LOW’). The slope S is used for calculation of % CTL=(S(compound)−S(‘LOW’))/(S(‘HIGH’)—S(‘LOW’))*100. Compounds will give values between 100% CTL (no inhibition) and 0% CTL (complete inhibition).
For IC50 value determination, the sample slope in the presence of the test compound after subtraction of the low controls (S(compound)−S(‘LOW’)) are used.
An IC50 value is derived from the compound slopes at different dosages after subtraction of the low controls (S(compound)−S(‘LOW’)) by non-linear regression curve fitting (equation y=(A+((B−A)/(1+((C/x)^D))))).

| Compound | IC50 [µM] |
| --- | --- |
| CCNC(=O)C(C)c1ccc(C#Cc2cnc(NCC)nc2)cc1 (stereo not shown) | 0.28 |
| CCOc1ccc(C#Cc2ccc(C(C)C(=O)NCC3CC3)cc2)cc1 (stereo not shown) | 28.7 |
| CCNC(=O)C(C)c1ccc(C#Cc2cnc(N3CCCC3)nc2)cc1 (stereo not shown) | 3.7 |
| CCNC(=O)C(C)c1ccc(C#Cc2cnc(NCc3cccnc3)nc2)cc1 (stereo not shown) | 3 |
